Laboratory results reported in PubChem BioAssay AID540256 (National Center for Advancing Translational Sciences (NCATS), 2011).
Screen size: about 300,000 compounds; about 3,700 (1.2%) were called active. The shares of active, inactive and inconclusive entries below differ from those in the screen. Calls follow the shape of the full dose curve; tested in HEK293 cells. A potency beside an inconclusive call is a rough fit, not a confirmed value.

Test: qHTS for Inhibitors of binding or entry into cells for Lassa Virus; also: nearly all actives have a fitted effect of over 50% in size
Conditions: Lassa virus pseudotype entry inhibition, cell reporter; activity change, negative = inhibition: at 37.9 µM (top of the series) unless noted
% is scaled to controls: 0 for no effect and ±100 for the full control effect; potency is read from the fitted curve at half-maximal effect.

| Structure (SMILES) | Potency | activity change, negative = inhibition |
| --- | --- | --- |
| CN(CC(=O)NC(=O)NC1CCCCC1)CC(=O)Nc1ccc(OC(F)(F)F)cc1 | inconclusive: 22.4 µM [inhibitor, partial curve, poor fit] | – |
| O=C(Nc1ccccc1)c1cn(-c2ccccc2)nc1-c1ccccc1 | inconclusive: 35.5 µM [inhibitor, single point] | – |
| CCOC(=O)c1sc2nc(C3CC3)cc(-c3ccc(F)cc3)c2c1N | inconclusive: 0.73 µM [inhibitor, partial curve, poor fit] | – |
| CCOC(=O)COc1c(OC)cc(Cl)cc1C1Nc2ccccc2C(=O)N1c1ccccc1 (stereo not given) | inconclusive: 7.3 µM [inhibitor, partial curve, poor fit] | – |
| COc1cc(CC(=O)OCc2cccc([N+](=O)[O-])c2)cc(OC)c1OC | inconclusive: 2.82 µM [inhibitor, partial curve, poor fit] | – |
| CCOc1ccc2c(c1)C(C)=CC(C)(C)N2S(=O)(=O)c1ccc(C)cc1 | inconclusive: 4.47 µM [inhibitor, full curve, poor fit] | – |
| O=C(CN1CCCCC1)Nc1nc(-c2ccc(F)c(F)c2)cs1 | inconclusive: 10 µM [inhibitor, partial curve, poor fit] | – |
| C/C(=N\Nc1cc(N2CCOCC2)nc(C)n1)c1ccc(F)cc1 | inconclusive: 7.94 µM [inhibitor, partial curve] | – |
| CCC(Sc1nnnn1C)C(=O)Nc1ccc(C(C)=O)cc1 (stereo not given) | – | inactive: 29.8% |
| O=C(CSc1nc2ccccc2n1-c1ccccc1)Nc1ncc(Cl)cc1Cl | active: 2.51 µM | – |
| Cc1c(C(=O)N2CCN(c3ccccn3)CC2)oc2ccccc12 | – | inactive: -3.35% |
| COc1ccc(C)cc1NC(=O)CCn1nc(C)cc1C | inconclusive: 10 µM [activator, partial curve] | – |
| COc1ccccc1NC(=O)Nc1nc(CC(=O)N2CCN(c3ccc(F)cc3)CC2)cs1 | inconclusive: 35.5 µM [inhibitor, single point] | – |
| NC(CC(=O)O)c1ccc(Br)cc1 (stereo not given) | – | inactive: 0.805% |
| O=C(NC(=S)NCCSc1ccccc1)c1cccnc1 | – | inactive: 6.95% |
| Cc1cccc(-c2[nH]ncc2-c2ccc3ncccc3n2)n1 | inconclusive: 0.628 µM [activator, full curve, poor fit] | – |
| COc1ccc(-c2c(C)nn3c(Cl)c(C)c(C)nc23)cc1 | inconclusive: 25.1 µM [inhibitor, single point] | – |
| Cc1cccc(C)c1NC(=O)CSCc1cnn(-c2ccccc2)c1-n1cccc1 | – | inactive: -13.2% [at 46.1 µM] |
| FC(F)(F)c1cc(Cl)c2nc(-c3ccccc3)cn2c1 | inconclusive: 17.8 µM [inhibitor, single point] | – |
| C/C(CC(=O)NC(C)C)=N\NC(=O)COc1cc(C)c(Br)cc1Br | inconclusive: 5.62 µM [inhibitor, single point] | – |
| Cc1ccc(CNC(=O)c2ccc3c(c2)N(Cc2cccc(C)c2)C(=O)CS3)cc1 | inconclusive: 6.31 µM [activator, single point] | – |
| N/C(=N\OC(=O)Cc1ccc(Cl)cc1)c1ccccn1 | inconclusive: 7.08 µM [activator, partial curve, poor fit] | – |
| COc1cccc(C2c3c(oc4ccccc4c3=O)C(=O)N2CCCN2CCOCC2)c1OC (stereo not given) | – | inactive: 3.76% |

| Structure (SMILES) | Potency | activity change, negative = inhibition |
| --- | --- | --- |
| COc1ccc(CCNCc2ccccc2F)cc1OC | – | inactive: 2.74% |
| COC(=O)c1ccc(/C=N/NC(=O)c2ccccc2Cl)cc1 | inconclusive: 20.6 µM [inhibitor, partial curve, poor fit] | – |
| COc1c(C=O)cc2c3c1CCCN3CCC2 | – | inactive: 2.88% |
| O=C(c1[nH]ncc1-c1cccc(Br)c1)C1CO1 (stereo not given) | inconclusive: 15.8 µM [inhibitor, single point] | – |
| CCCN(Cc1ccccc1)C(=O)Nc1ccc2c(c1)nnn2C | active: 2.59 µM | – |
| O=C(Nc1ccc(N2CCCC2)c(Cl)c1)c1ccccc1[N+](=O)[O-] | – | inactive: 14% |
| CCOc1cc(C(=O)OCC(=O)Nc2ccc(Cl)cn2)ccc1OCC(=O)N1CCOCC1 | inconclusive: 22.4 µM [inhibitor, single point] | – |
| CCCn1c2ccccc2c2cnn(CC(=O)NCCCN3CCCC(C)C3)c(=O)c21 (stereo not given) | – | inactive: -26.9% [at 46.1 µM] |
| Cc1nc2ccccc2nc1OCc1cccc(Cl)c1 | – | inactive: 16.7% |
| COc1ccc(OCc2cc(C(=O)NC(C)Cc3ccccn3)no2)c(Cl)c1 (stereo not given) | inconclusive: 35.5 µM [inhibitor, single point] | – |
| O=C(Oc1ccccc1)c1cc2ccccc2oc1=O | inconclusive: 0.891 µM [inhibitor, single point] | – |
| COc1ccc(CCNC(=O)CN(c2ccc(OC)c(OC)c2)S(C)(=O)=O)cc1 | inconclusive: 18.3 µM [activator, partial curve, poor fit] | – |
| CC(C)c1ccc(NC(=S)NN(c2ccccc2)c2ccccc2)cc1 | inconclusive: 5.62 µM [inhibitor, single point] | – |
| Cc1ccc(C2(CCNC(C)c3cccs3)CCOC(C(C)C)C2)cc1 (stereo not given) | inconclusive: 14.1 µM [inhibitor, single point] | – |
| COc1ccc(N=c2sc3ccccc3n2C)cc1 | inconclusive: 6.51 µM [activator, single point] | – |
| COC(=O)c1ccc(NC(=O)CSc2n[nH]c(CC(C)C)n2)cc1 | inconclusive: 22.4 µM [inhibitor, single point] | – |
| COC(=O)c1c(NC(=O)CN2CCN(C(=O)c3ccco3)CC2)c2c(C)cccc2n1C | – | inactive: -0.617% |
| Cc1ccc(OCCC(=O)OCC(=O)Nc2ccc(C)c(S(=O)(=O)N3CCOCC3)c2)cc1 | inconclusive: 8.91 µM [activator, partial curve] | – |
| CCc1cc(C(=O)OC)c(NC(=O)CN2CCN(C(=O)c3ccco3)CC2)s1 | inconclusive: 7.08 µM [inhibitor, partial curve, poor fit] | – |
| CCOC(=O)c1nnn(-c2nonc2-n2cccc2)c1C | – | inactive: 14.6% |
| O=C(COc1coc(CN2CCN(c3ccccc3)CC2)cc1=O)NC1CCCC1 | – | inactive: 11.3% |
| CCOC(=O)c1nnc(-c2ccccc2)nc1Sc1c(Cl)cccc1Cl | inconclusive: 22.4 µM [inhibitor, partial curve, poor fit] | – |

A run of entries from the list above, for reference:

| Structure (SMILES) | Potency | activity change, negative = inhibition |
| --- | --- | --- |
| Cc1ccc(C2(CCNC(C)c3cccs3)CCOC(C(C)C)C2)cc1 (stereo not given) | inconclusive: 14.1 µM [inhibitor, single point] | – |
| COc1ccc(N=c2sc3ccccc3n2C)cc1 | inconclusive: 6.51 µM [activator, single point] | – |
